Test results as given in paper PMC4617596.
Results are given in words; binding and its absence hold for the method and conditions named. Binding seen in cells or lysates may run through a third protein. Some binding calls cover weakened binding; strength is not graded here. Tags and fused reporters may be left off the sequences shown.

By UniProt entry, the sequences of proteins in these tests, tags left out.
UniProt P27546: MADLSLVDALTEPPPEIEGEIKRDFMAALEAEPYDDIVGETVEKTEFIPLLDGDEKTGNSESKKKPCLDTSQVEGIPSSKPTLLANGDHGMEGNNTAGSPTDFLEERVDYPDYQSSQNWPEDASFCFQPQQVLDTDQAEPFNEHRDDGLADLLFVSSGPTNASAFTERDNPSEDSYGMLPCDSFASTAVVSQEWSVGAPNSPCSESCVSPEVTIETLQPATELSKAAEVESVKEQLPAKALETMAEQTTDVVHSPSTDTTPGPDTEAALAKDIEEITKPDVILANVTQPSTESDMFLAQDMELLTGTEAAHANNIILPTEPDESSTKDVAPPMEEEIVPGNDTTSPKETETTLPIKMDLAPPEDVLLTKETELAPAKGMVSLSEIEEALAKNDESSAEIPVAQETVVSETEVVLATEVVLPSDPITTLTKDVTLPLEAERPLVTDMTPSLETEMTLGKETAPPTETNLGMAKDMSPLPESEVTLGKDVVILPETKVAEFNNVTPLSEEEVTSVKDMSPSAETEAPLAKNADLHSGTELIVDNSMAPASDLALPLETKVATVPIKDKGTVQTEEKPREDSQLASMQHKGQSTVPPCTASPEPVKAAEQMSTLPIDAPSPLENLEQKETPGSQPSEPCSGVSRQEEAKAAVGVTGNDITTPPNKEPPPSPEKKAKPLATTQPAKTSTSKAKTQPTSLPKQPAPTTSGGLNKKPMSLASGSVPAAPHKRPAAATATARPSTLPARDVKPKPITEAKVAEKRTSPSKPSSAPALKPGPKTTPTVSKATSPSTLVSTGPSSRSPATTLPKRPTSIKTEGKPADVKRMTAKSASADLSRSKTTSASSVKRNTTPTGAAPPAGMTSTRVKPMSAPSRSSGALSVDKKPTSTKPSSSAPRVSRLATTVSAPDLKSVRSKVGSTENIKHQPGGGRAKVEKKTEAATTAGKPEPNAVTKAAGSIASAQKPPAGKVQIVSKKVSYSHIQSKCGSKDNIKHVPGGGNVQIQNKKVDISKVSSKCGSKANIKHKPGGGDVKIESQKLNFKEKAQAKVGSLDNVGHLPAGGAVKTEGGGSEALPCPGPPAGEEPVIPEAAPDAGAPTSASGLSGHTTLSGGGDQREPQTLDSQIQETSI
UniProt Q61025: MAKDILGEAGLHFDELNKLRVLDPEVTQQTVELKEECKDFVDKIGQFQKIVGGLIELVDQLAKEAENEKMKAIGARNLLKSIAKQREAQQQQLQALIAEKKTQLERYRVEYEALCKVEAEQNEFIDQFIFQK

Assays:
[1] = target: GFP-MmMap4 (mouse (Mm (so in the source))) (UniProt P27546); assay: co-IP; HEK293T cells co-expressing Flag-MmIFT54 constructs and GFP-MAP4; lysis in 50 mM Tris-HCl pH 7.5, 150 mM NaCl, 0.5% Triton; precleared lysates immunoprecipitated with anti-GFP antibody on G-protein beads, 3 h at 4 °C; washes with increasing NaCl; western blot with GFP and Flag antibodies
[2] = target: GFP-MmIft20 (mouse (Mm (so in the source))) (UniProt Q61025); assay: co-IP; HEK293T cells co-transfected with Flag-MmTraf3ip1 constructs and GFP-MmIft20; lysis in 50 mM Tris-HCl pH 7.5, 150 mM NaCl, 0.5% Triton; immunoprecipitation with anti-Flag or anti-GFP antibodies on G-protein beads (which one is not told for this pair), 3 h at 4 °C; washes with increasing NaCl

binding [1] | binding [2] | Binder
binds | binds | Flag-tagged MmIFT54 WT (protein, UniProt Q149C2 1-625) MNAAVVRRTQEALGKVIRRPPLTEKLLNKPPFRYLHDIITEVIRITGFMKGLYTDAEMKSENVKDKDAKISFLQKAIDVVMMVSGEPLAAKPARIVAGHEPERTNELLQLIGKCCLSKLSSDEAVKRVLAGDKGDSRGRAQRTSKAQEPNNKSGKEEESRIHKEDKRSSEAKERSASAEHKQKEELKEDSKPREKERDKEKAKEADRDRHRDPDRDRNRDGEREKARARAKDRDRNNRDRDREAERDRERDRRSEGGKEKERVKDRDRDRDKGRDRERRKSKNGEHTRDPDREKSRDADKPEKKSSSSGEISRKLSDGSFKDVKAEMEADISVGASRSSTLKPSKRRSKHSLEGDSPSDAEVEAGPAGQDKPEVMENAEVPSELPSSLRRIPRPGSARPAPPRVKRQESTETLVVDRSGSGKTVSSVIIDSQNSDNEDDEQFVVEAAPQLSEIADIDMVPSGELEDEEKHGGLVKKILETKKDYEKLQQSLKPGEKERSLIFESAWKKEKDIVSKEIEKLRVSIQTLCKSALPLGKIMDYIQEDVDAMQNELQLWHSENRQHAEALSQEQSITDSAVEPLKAELSELEQQIRDQQDKICAVKANILKNEEKIQKMVHSINLSSRR
binds | binds | Flag-tagged MmIFT54 p.I453R (protein, UniProt Q149C2 1-625) MNAAVVRRTQEALGKVIRRPPLTEKLLNKPPFRYLHDIITEVIRITGFMKGLYTDAEMKSENVKDKDAKISFLQKAIDVVMMVSGEPLAAKPARIVAGHEPERTNELLQLIGKCCLSKLSSDEAVKRVLAGDKGDSRGRAQRTSKAQEPNNKSGKEEESRIHKEDKRSSEAKERSASAEHKQKEELKEDSKPREKERDKEKAKEADRDRHRDPDRDRNRDGEREKARARAKDRDRNNRDRDREAERDRERDRRSEGGKEKERVKDRDRDRDKGRDRERRKSKNGEHTRDPDREKSRDADKPEKKSSSSGEISRKLSDGSFKDVKAEMEADISVGASRSSTLKPSKRRSKHSLEGDSPSDAEVEAGPAGQDKPEVMENAEVPSELPSSLRRIPRPGSARPAPPRVKRQESTETLVVDRSGSGKTVSSVIIDSQNSDNEDDEQFVVEAAPQLSERADIDMVPSGELEDEEKHGGLVKKILETKKDYEKLQQSLKPGEKERSLIFESAWKKEKDIVSKEIEKLRVSIQTLCKSALPLGKIMDYIQEDVDAMQNELQLWHSENRQHAEALSQEQSITDSAVEPLKAELSELEQQIRDQQDKICAVKANILKNEEKIQKMVHSINLSSRR
binds |  | Flag-tagged MmIFT54 p.K155* (domain or fragment, UniProt Q149C2 1-154) MNAAVVRRTQEALGKVIRRPPLTEKLLNKPPFRYLHDIITEVIRITGFMKGLYTDAEMKSENVKDKDAKISFLQKAIDVVMMVSGEPLAAKPARIVAGHEPERTNELLQLIGKCCLSKLSSDEAVKRVLAGDKGDSRGRAQRTSKAQEPNNKSG
